Assay results from patent US9120791B2, “Indolizine compounds, a process for their preparation and pharmaceutical compositions containing them” (LES LABORATOIRES SERVIER, priority 2012, dated 2015).
Where a name gives a salt, the structure may show the parent alone.

Test system: RS4;11 leukaemia tumour line
Assay: In vitro cytotoxicity (Microculture Tetrazolium Assay, 48 hours)
Format: cell-based
Details: Homo sapiens, RS4-11, 48 h, read-out: IC50 (nM) MTT RS4
Protocol: The cytotoxicity studies were carried out on the RS4;11 leukaemia tumour line.
The cells are distributed onto microplates and exposed to the test compounds for 48 hours.

O=C(c1cc(-c2cc3c(cc2C(=O)N2Cc4ccccc4C[C@H]2CN2CCOCC2)OCO3)n2ccncc12)N(c1ccc(O)cc1)c1cccc(F)c1 [Example 121, N-(3-Fluorophenyl)-N-(4-hydroxyphenyl)-6-(6-{[(3S)-3-(morpholin-4-ylmethyl)-3,4-dihydroisoquinolin-2(1H)-yl]carbonyl}-1,3-benzodioxol-5-yl)pyrrolo-[1,2-a]pyrazine-8-carboxamide hydrochloride]
IC50: 445 nM
